From patent US5677419A (Hoffmann-La Roche Inc., priority 1994, dated 1997)

Experiments:
[1] = general procedure: Boc solid-phase peptide synthesis; benzhydrylamine (BHA) resin, 100-200 ASTM mesh, Bachem; DCC symmetrical anhydrides or DIC; HOBT active esters for Asn, Gln, His; BOP or; details: whole synthesis
[2] = general procedure: Boc solid-phase peptide synthesis; benzhydrylamine resin; DCC symmetrical anhydrides or DIC; HOBT active esters for Asn, Gln, His; BOP or; details: whole synthesis, scale 0.1 mmol

## Ac-[Lys^12,Nle^17,Ala^19,Asp^25,Val^26,Thr^28 ]-VIP cyclo (Lys^21 →Asp^25)
[1]; scale 0.1 mmol
  crude mass: 304 mg

## Ac-[Asn^8,Asp^9,Lys^12,Nle^17,Val^26,Thr^28 ]-VIP cyclo (Asp^9 →Lys^12)
[1]; scale 0.122 mmol
  crude mass: 485 mg

## Ac-[p-F-Phe^6,Glu^8,Lys^12,Nle^17,Asp^25,Val^26,Thr^28,Gly^29,30,Thr^31 ]-VIP cyclo (Lys^21 →Asp^25)
[2]
  crude mass: 280 mg

## Ac-[p-F-Phe^6,2-Nal^10,Lys^12,Nle^17,Asp^25,Val^26,Thr^28,Gly^29,30,Met^31 ]-VIP (1-31)-NH2 cyclo (Lys^21 →Asp^25)
[1]; scale 0.1 mmol
  crude mass: 345 mg

## Ac-[p-F-Phe^6,Lys^12,Nle^17,Ala^19,Asp^25,Val^26,Thr^28,Gly^29,30,Cys(Acm)^31 ]-VIP (1-31)-NH2 cyclo (Lys^21 →Asp^25)
[1]; scale 0.1 mmol
  crude mass: 268 mg

## Ac-[Ala^8,Lys^12,Ala^16,17,19,Ala^24,Asp^25,Leu^26,Lys^27,28 ]-VIP cyclo (Lys^21 →Asp^25)
[2]
  crude mass: 240 mg

## Ac-[Glu^8,Lys^12,Nle^17,Asp^25,Leu^26,Lys^27,28,Gly^29,30,Thr^31 ]-VIP cyclo (Lys^21 →Asp^25)
[2]
  crude mass: 378 mg

## Ac-[Ala^2,Lys^12,Nle^17,Ala^19,Asp^25,Val^26,Thr^28 ]-VIP cyclo (Lys^21 →Asp^25)
[1]; scale 0.1 mmol
  crude mass: 172 mg

## Ac-[Lys^12,Nle^17,Asp^24,Val^26,Thr^28 ]-VIP cyclo (Lys^20 →Asp^24)
[1]; scale 0.1 mmol
  crude mass: 265 mg

## Ac-[Lys^12,Nle^17,Ala^19,Asp^25,Leu^26,Lys^27,28,Ala^29-31 ]-VIP cyclo (Lys^21 →Asp^25)
[2]
  crude mass: 360 mg

## Ac-[Glu^8,Orn^12,Nle^17,Asp^25,Val^26,Thr^28 ]-VIP cyclo (Lys^21 →Asp^25)
[1]; scale 0.1 mmol
  crude mass: 255 mg

## Ac-[Ala^2,Glu^8,Lys^12,Nle^17,Asp^25,Leu^26,Lys^27,28,Gly^29,30,Thr^31 ]-VIP cyclo (Lys^21 →Asp^25)
[2]
  crude mass: 370 mg

## Ac-[Glu^8,Lys^12,Ala^16,17,19,Ala^24,Asp^25,Leu^26,Lys^27,28 ]-VIP cyclo (Lys^21 →Asp^25)
[2]
  crude mass: 178 mg

## Ac-[Glu^8,Lys^12,Nle^17,Ala^19,Asp^25,Val^26,Thr^28,Gly^29,30,Thr^31 ]-VIP cyclo (Lys^21 →Asp^25)
[2]
  crude mass: 440 mg
